Results are given in words; binding and its absence hold for the method and conditions named. Binding seen in cells or lysates may run through a third protein. Binding calls can cover weak binding; strength is not graded here.
Biological target: RADICAL-INDUCED CELL DEATH1 (RCD1), GFP fusion (Arabidopsis thaliana) (UniProt Q8RY59)
Assay: co-IP; RCD1-GFP and PPK-3xHA co-expressed transiently in N. benthamiana leaves; extract in 50 mM Tris-HCl pH 7.5, 150 mM NaCl, 10% glycerol, 1 mM EDTA, 5 mM DTT, 10 uM MG132; captured on anti-GFP-nanobody magnetic beads, 4 C, 5 min; blots with anti-GFP and anti-HA

The chains behind the UniProt entries cited, without tags or fusion partners. Where a name states a change or a piece, a line headed by the entry shows the natural chain unless it says otherwise.
UniProt Q8RY59: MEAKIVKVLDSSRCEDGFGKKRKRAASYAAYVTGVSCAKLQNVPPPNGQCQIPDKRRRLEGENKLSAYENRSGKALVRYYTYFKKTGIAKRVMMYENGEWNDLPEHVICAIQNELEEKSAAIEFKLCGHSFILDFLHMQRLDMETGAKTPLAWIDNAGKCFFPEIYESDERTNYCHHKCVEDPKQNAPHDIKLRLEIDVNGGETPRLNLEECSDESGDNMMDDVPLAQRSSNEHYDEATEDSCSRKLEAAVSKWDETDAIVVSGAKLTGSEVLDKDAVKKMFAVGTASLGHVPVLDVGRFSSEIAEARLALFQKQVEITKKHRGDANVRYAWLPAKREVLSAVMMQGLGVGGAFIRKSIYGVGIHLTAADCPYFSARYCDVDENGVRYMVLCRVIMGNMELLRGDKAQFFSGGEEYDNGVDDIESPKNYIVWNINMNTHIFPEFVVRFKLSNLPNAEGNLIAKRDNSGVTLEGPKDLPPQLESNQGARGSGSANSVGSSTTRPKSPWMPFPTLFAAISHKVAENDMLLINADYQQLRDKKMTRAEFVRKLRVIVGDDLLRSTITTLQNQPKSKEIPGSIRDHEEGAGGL
UniProt Q9SQR8: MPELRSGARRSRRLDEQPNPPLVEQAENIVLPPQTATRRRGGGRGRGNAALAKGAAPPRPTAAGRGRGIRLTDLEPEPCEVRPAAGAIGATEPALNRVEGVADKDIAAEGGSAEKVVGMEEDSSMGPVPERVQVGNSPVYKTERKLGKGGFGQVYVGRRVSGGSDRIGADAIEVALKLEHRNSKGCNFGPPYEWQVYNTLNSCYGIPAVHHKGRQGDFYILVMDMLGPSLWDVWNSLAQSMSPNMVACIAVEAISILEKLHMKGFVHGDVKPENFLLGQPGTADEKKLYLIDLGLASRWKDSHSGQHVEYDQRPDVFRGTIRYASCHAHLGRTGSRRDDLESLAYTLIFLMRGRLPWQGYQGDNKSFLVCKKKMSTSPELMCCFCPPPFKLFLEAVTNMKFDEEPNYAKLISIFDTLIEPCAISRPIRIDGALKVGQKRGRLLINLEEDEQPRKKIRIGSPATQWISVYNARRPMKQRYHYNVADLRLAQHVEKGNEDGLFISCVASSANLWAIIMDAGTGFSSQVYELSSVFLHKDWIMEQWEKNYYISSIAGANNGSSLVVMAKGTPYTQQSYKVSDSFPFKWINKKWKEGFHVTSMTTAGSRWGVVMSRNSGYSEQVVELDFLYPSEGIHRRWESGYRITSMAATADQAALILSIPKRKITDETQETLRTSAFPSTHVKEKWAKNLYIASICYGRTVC

Question: How did the binding turn out when “Photoregulatory Protein Kinase 3 (PPK3), 3xHA fusion (from UniProt Q9SQR8) (enzyme)” was run?
Answer: binds

— paper PMC10115779
